Consider 42 compounds from the supplement of paper PMC4635364.

Molecules are shown by their SMILES. Counter-ions that a name gives are not always drawn. This is one part of the list. This data set is noisy: repeats of one test often differ as much as different tests do.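 ReNCell VM, a human fetal ventral-midbrain neural progenitor line, was differentiated without mitogens. Blinded raters scored images stained for doublecortin (early neurons) or tyrosine hydroxylase (dopaminergic neurons) against untreated wells (0 = no change). Scores were averaged across repeats and both raters, and compounds averaging 2 or more were selected as hits for retesting.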

Assay [1] deals with ReNCell VM. Kind of assay: neuronal differentiation score (DCX+ cell fraction vs untreated, manual image score) (score (-3 to 3)); higher = more neuronal differentiation. As to conditions: 2 uM, 2 weeks.
Assay [2] has as its system ReNCell VM. Put plainly: dopaminergic neuron differentiation score (TH+ cell fraction vs untreated, manual image score) (score (0 to 3)); higher = more TH+ dopaminergic neuron differentiation. Conditions: 2 uM, 4 weeks, BDNF 10 ng/ml + GDNF 10 ng/ml.

Regarding `c1ccc2c(c1)sc1ccccc12`, the neuronal differentiation score in the assay with ReNCell VM [1] (library: Spectrum) was inactive: 0. Besides, in the assay with ReNCell VM [2] (library: Spectrum), the “dopaminergic neuron differentiation score” value was inactive: 0.
As for `CC(C)NC(C)Cc1ccc(I)cc1` (centres undefined) [Iofetamine hydrochloride], the neuronal differentiation score with ReNCell VM [1] (library: LOPAC) was inactive: 0. Besides, the “dopaminergic neuron differentiation score” value in the assay on ReNCell VM [2] (library: LOPAC) was inactive: 0.
On to `NNC(=O)c1ccc(O)cc1` [4-Hydroxybenzhydrazide], for which the neuronal differentiation score with ReNCell VM [1] (library: LOPAC) is inactive: -1. In addition, in the assay with ReNCell VM [2] (library: LOPAC), the “dopaminergic neuron differentiation score” value is inactive: 0.
In the case of `C[N+]1(C)[C@@H]2CC(OC(=O)[C@H](CO)c3ccccc3)C[C@H]1[C@@H]1O[C@@H]12` (single isomer, unassigned; (-)) [(-)-Scopolamine methyl nitrate], the neuronal differentiation score with ReNCell VM [1] (library: LOPAC) is inactive: 0. Besides, in the assay with ReNCell VM [2] (library: LOPAC), the “dopaminergic neuron differentiation score” value was inactive: 0.
As for `C/C=C(/C)C(=O)O[C@H]1C(C)=C2[C@H]([C@@H]1OC(=O)CCCCCCC)[C@@](C)(OC(C)=O)C[C@H](OC(=O)CCC)[C@@]1(O)[C@H]2OC(=O)[C@@]1(C)O` [Thapsigargin], the neuronal differentiation score with ReNCell VM [1] (library: LOPAC) was inactive: 0. Moreover, the “dopaminergic neuron differentiation score” value in the assay with ReNCell VM [2] (library: LOPAC) is inactive: 0.
For the compound `CCC(=O)O[C@H]1CC[C@H]2[C@@H]3CCC4=CC(=O)CC[C@]4(C)[C@H]3CC[C@]12C`, the neuronal differentiation score in the assay on ReNCell VM [1] (library: Spectrum) is inactive: 0. For the same compound, the “dopaminergic neuron differentiation score” value in the assay with ReNCell VM [2] (library: Spectrum) is inactive: 0.
As to `CNC(C)C(O)c1ccccc1` (centres undefined), the neuronal differentiation score with ReNCell VM [1] (library: Spectrum) is inactive: 0. The “dopaminergic neuron differentiation score” value in the assay with ReNCell VM [2] (library: Spectrum) is inactive: 0.
As to `CC[C@H]1CN2CCc3cc(OC)c(OC)cc3[C@@H]2C[C@@H]1C[C@H]1NCCc2cc(OC)c(OC)cc21`, the neuronal differentiation score in the assay on ReNCell VM [1] (library: Spectrum) is inactive: 0. Also, the “dopaminergic neuron differentiation score” value with ReNCell VM [2] (library: Spectrum) was inactive: 0.
Regarding `NCC(=O)c1ccccc1`, the neuronal differentiation score in the assay with ReNCell VM [1] (library: Spectrum) was inactive: 0. Moreover, the “dopaminergic neuron differentiation score” value with ReNCell VM [2] (library: Spectrum) was inactive: 0.
`O=S1(=O)N(CCN2CC=C(c3c[nH]c4cc(F)ccc34)CC2)c2cccc3c2N1CCC3`: in the assay with ReNCell VM [1] (library: LOPAC), the neuronal differentiation score is inactive: 0. Moreover, the “dopaminergic neuron differentiation score” value in the assay with ReNCell VM [2] (library: LOPAC) is inactive: 1.
With `Oc1ccc2c3c1O[C@H]1c4oc5ccccc5c4C[C@@]4(O)[C@@H](C2)N(CC2CC2)CC[C@]314` [Naltriben mesylate], the neuronal differentiation score in the assay with ReNCell VM [1] (library: Tocriscreen) was inactive: 0. Further, the “dopaminergic neuron differentiation score” value in the assay with ReNCell VM [2] (library: Tocriscreen) is inactive: 0.
For `CC(=O)NBr` [N-Bromoacetamide], in the assay on ReNCell VM [1] (library: LOPAC), the neuronal differentiation score was inactive: -1. Further, in the assay on ReNCell VM [2] (library: LOPAC), the “dopaminergic neuron differentiation score” value was inactive: 0.
For `CCC1(C)CC(=O)NC(=O)C1` [Bemegride], the neuronal differentiation score in the assay on ReNCell VM [1] (library: Prestwick) is inactive: 1. For the same compound, the “dopaminergic neuron differentiation score” value in the assay with ReNCell VM [2] (library: Prestwick) is inactive: 0.
In the case of `COC[C@H]1OC(=O)c2coc3c2[C@@]1(C)C1=C(C3=O)[C@@H]2CCC(=O)[C@@]2(C)C[C@H]1OC(C)=O` [Wortmannin from Penicillium funiculosum], the neuronal differentiation score in the assay with ReNCell VM [1] (library: LOPAC) is inactive: 0. Besides, the “dopaminergic neuron differentiation score” value with ReNCell VM [2] (library: LOPAC) was inactive: 0.
`O=[N+]([O-])C(Br)(CO)CO`: the neuronal differentiation score in the assay with ReNCell VM [1] (library: Spectrum) is inactive: 0. In the assay on ReNCell VM [2] (library: Spectrum), the “dopaminergic neuron differentiation score” value is inactive: 0.
`NCC(O)c1cc(O)c(O)cc1F` (centres undefined) [6-Fluoronorepinephrine hydrochloride]: in the assay on ReNCell VM [1] (library: LOPAC), the neuronal differentiation score is inactive: 0. Further, in the assay with ReNCell VM [2] (library: LOPAC), the “dopaminergic neuron differentiation score” value was inactive: 0.
Regarding `CCC(=O)O[C@@](Cc1ccccc1)(c1ccccc1)[C@@H](C)CN(C)C` [Levopropoxyphene napsylate], the neuronal differentiation score in the assay with ReNCell VM [1] (library: Prestwick) is inactive: 0. For the same compound, in the assay on ReNCell VM [2] (library: Prestwick), the “dopaminergic neuron differentiation score” value was inactive: 0.
Regarding `NC(=O)C[S+]([O-])C(c1ccccc1)c1ccccc1` (centres undefined) [Modafinil], in the assay with ReNCell VM [1] (library: Prestwick), the neuronal differentiation score was inactive: 0. Besides, the “dopaminergic neuron differentiation score” value with ReNCell VM [2] (library: Prestwick) is inactive: 0.
`NC(N)=NOCC[C@H](N)C(=O)O` [L-Canavanine]: the neuronal differentiation score with ReNCell VM [1] (library: LOPAC) was inactive: 0. Further, in the assay with ReNCell VM [2] (library: LOPAC), the “dopaminergic neuron differentiation score” value is inactive: 0.
Consider `Cc1cc2c(C(C)C)c(O)c(O)c(C=O)c2c(O)c1-c1c(C)cc2c(C(C)C)c(O)c(O)c(C=O)c2c1O` [Gossypol], for which the neuronal differentiation score in the assay with ReNCell VM [1] (library: Phytochemical) is inactive: 0. In addition, the “dopaminergic neuron differentiation score” value with ReNCell VM [2] (library: Phytochemical) is inactive: 0.
As for `CC(CCc1ccccc1)NC(C)C(O)c1ccc(O)cc1` (centres undefined) [Nylidrin hydrochloride], the neuronal differentiation score in the assay with ReNCell VM [1] (library: LOPAC) was inactive: 0. Besides, the “dopaminergic neuron differentiation score” value in the assay on ReNCell VM [2] (library: LOPAC) is inactive: 0.
Regarding `C[N+]1(C)CCCC(OC(=O)C(O)(c2ccccc2)c2ccccc2)C1` (centres undefined) [Mepenzolate bromide], in the assay with ReNCell VM [1] (library: Prestwick), the neuronal differentiation score was inactive: 0. Moreover, the “dopaminergic neuron differentiation score” value in the assay with ReNCell VM [2] (library: Prestwick) was inactive: 0.
As to `Cc1nc(-c2ccc(-c3ccc(C(=O)N4CCc5cc6c(cc54)C4(CCN(C)CC4)CO6)cc3)c(C)c2)no1`, in the assay on ReNCell VM [1] (library: LOPAC), the neuronal differentiation score was inactive: 0. In addition, the “dopaminergic neuron differentiation score” value in the assay with ReNCell VM [2] (library: LOPAC) was inactive: 0.
On to `C=CCN1CC[C@]23CCCC[C@H]2[C@H]1Cc1ccc(O)cc13` [Levallorphan tartrate], for which, in the assay on ReNCell VM [1] (library: LOPAC), the neuronal differentiation score is inactive: 0. For the same compound, the “dopaminergic neuron differentiation score” value in the assay on ReNCell VM [2] (library: LOPAC) is inactive: 0.
Take `CC(C)(C)NCC(O)c1ccccc1Cl` (centres undefined) [Tulobuterol hydrochloride]: the neuronal differentiation score in the assay with ReNCell VM [1] (library: LOPAC) was inactive: 0. For the same compound, in the assay with ReNCell VM [2] (library: LOPAC), the “dopaminergic neuron differentiation score” value was inactive: 0.
With `C[C@H](N)Cc1cnc[nH]1` [(S)-(+)-a-Methylhistamine dihydrobromide], in the assay on ReNCell VM [1] (library: Tocriscreen), the neuronal differentiation score was inactive: 0. Besides, in the assay with ReNCell VM [2] (library: Tocriscreen), the “dopaminergic neuron differentiation score” value was inactive: 0.
In the case of `C=CCC1(C(C)CCC)C(=O)NC(=S)NC1=O` (centres undefined), in the assay with ReNCell VM [1] (library: Spectrum), the neuronal differentiation score is inactive: 0. Further, in the assay with ReNCell VM [2] (library: Spectrum), the “dopaminergic neuron differentiation score” value was inactive: 0.
With `CCC(N)C(O)c1ccc(O)c(O)c1` (centres undefined), the neuronal differentiation score with ReNCell VM [1] (library: Spectrum) is inactive: 0. Moreover, in the assay on ReNCell VM [2] (library: Spectrum), the “dopaminergic neuron differentiation score” value is inactive: 0.
On to `Clc1ccc(C2=CCCC3CCC2N3)cn1` (centres undefined) [UB 165 fumarate], for which, in the assay on ReNCell VM [1] (library: Tocriscreen), the neuronal differentiation score was inactive: 0. Also, the “dopaminergic neuron differentiation score” value in the assay with ReNCell VM [2] (library: Tocriscreen) was inactive: 0.
For the compound `CCCC[N+]1(C)[C@@H]2C[C@@H](OC(=O)[C@H](CO)c3ccccc3)C[C@H]1[C@@H]1O[C@@H]12` (single isomer, unassigned; (-)) [(-)-Scopolamine,n-Butyl-, bromide], the neuronal differentiation score in the assay on ReNCell VM [1] (library: LOPAC) was inactive: 0. Moreover, in the assay with ReNCell VM [2] (library: LOPAC), the “dopaminergic neuron differentiation score” value was inactive: 0.
In the case of `CC(C)(C)[C@]1(O)CC2OC(=O)CC23C(=O)OC2OC(=O)[C@H](O)C231` (some centres undefined) [bilobalide], the neuronal differentiation score in the assay on ReNCell VM [1] (library: Natural) is inactive: 0. In the assay with ReNCell VM [2] (library: Natural), the “dopaminergic neuron differentiation score” value was inactive: 0.
Consider `CC(C)c1c(CN(C)C(C)Cc2ccccc2)n(C)n(-c2ccccc2)c1=O` (centres undefined) [Famprofazone], for which the neuronal differentiation score in the assay with ReNCell VM [1] (library: Prestwick) was inactive: 0. For the same compound, the “dopaminergic neuron differentiation score” value in the assay with ReNCell VM [2] (library: Prestwick) was inactive: 0.
In the case of `CCN1C[C@]2(COC)[C@H](O)C[C@H](OC)[C@@]34[C@@H]5C[C@@]6(O)[C@H](OC(=O)c7ccccc7)[C@@H]5[C@@](OC(C)=O)([C@@H]([C@H](OC)[C@H]23)[C@@H]14)[C@@H](O)[C@@H]6OC` [Aconitine], the neuronal differentiation score with ReNCell VM [1] (library: Phytochemical) is inactive: 0. The “dopaminergic neuron differentiation score” value with ReNCell VM [2] (library: Phytochemical) is inactive: 0.
Take `CC[C@H]1[C@@H]2C[C@H]3[C@@H]4N(C)c5ccccc5[C@]45C[C@@H]([C@@H]2[C@H]5O)N3[C@@H]1O` [Ajmaline]: the neuronal differentiation score in the assay with ReNCell VM [1] (library: Phytochemical) was inactive: 0. Also, the “dopaminergic neuron differentiation score” value in the assay with ReNCell VM [2] (library: Phytochemical) was inactive: 0.
As to `CCSCC[C@H](N)C(=O)O`, the neuronal differentiation score in the assay with ReNCell VM [1] (library: Spectrum) was inactive: 0. Moreover, the “dopaminergic neuron differentiation score” value in the assay on ReNCell VM [2] (library: Spectrum) is inactive: 0.
Turning to `C=CCc1ccc2c(c1)OCO2`, in the assay with ReNCell VM [1] (library: Spectrum), the neuronal differentiation score was inactive: 0. Also, the “dopaminergic neuron differentiation score” value in the assay on ReNCell VM [2] (library: Spectrum) was inactive: 0.
In the case of `CC(CCc1ccccc1)NC(C)C(O)c1ccc(O)cc1` (centres undefined) [Nylidrin], the neuronal differentiation score with ReNCell VM [1] (library: Prestwick) was inactive: 0. For the same compound, in the assay with ReNCell VM [2] (library: Prestwick), the “dopaminergic neuron differentiation score” value was inactive: 0.
As for `CN1C[C@H](C(=O)N[C@]2(C)O[C@@]3(O)[C@@H]4CCCN4C(=O)[C@H](Cc4ccccc4)N3C2=O)C=C2c3cccc4[nH]cc(c34)C[C@H]21`, in the assay on ReNCell VM [1] (library: Spectrum), the neuronal differentiation score is inactive: 0. The “dopaminergic neuron differentiation score” value in the assay with ReNCell VM [2] (library: Spectrum) was inactive: 0.
Take `NCCc1cc(O)c(O)cc1O`: in the assay with ReNCell VM [1] (library: Spectrum), the neuronal differentiation score was inactive: 1. Further, the “dopaminergic neuron differentiation score” value in the assay with ReNCell VM [2] (library: Spectrum) was inactive: 0.
As to `COc1ccc2c3c([nH]c2c1)C(C)=NCC3` [Harmaline hydrochloride dihydrate], in the assay on ReNCell VM [1] (library: Phytochemical), the neuronal differentiation score is inactive: 0. In addition, in the assay on ReNCell VM [2] (library: Phytochemical), the “dopaminergic neuron differentiation score” value is inactive: 0.
As for `C(#CCN1CCCC1)CN1CCCC1` [Tremorine dihydrochloride], the neuronal differentiation score in the assay on ReNCell VM [1] (library: Prestwick) was inactive: 0. The “dopaminergic neuron differentiation score” value in the assay with ReNCell VM [2] (library: Prestwick) is inactive: 0.
Regarding `O=C1CC[C@@]2(O)[C@H]3Cc4ccc(O)c5c4[C@@]2(CCN3CC2CC2)[C@H]1O5`, the neuronal differentiation score with ReNCell VM [1] (library: Spectrum) is inactive: 0. In addition, in the assay with ReNCell VM [2] (library: Spectrum), the “dopaminergic neuron differentiation score” value was inactive: 0.
